The experiment deals with T1, GFP:NPH3 expressed in Arabidopsis nph3-7 seedlings (Arabidopsis thaliana) (UniProt Q9FMF5).
T1 sequence: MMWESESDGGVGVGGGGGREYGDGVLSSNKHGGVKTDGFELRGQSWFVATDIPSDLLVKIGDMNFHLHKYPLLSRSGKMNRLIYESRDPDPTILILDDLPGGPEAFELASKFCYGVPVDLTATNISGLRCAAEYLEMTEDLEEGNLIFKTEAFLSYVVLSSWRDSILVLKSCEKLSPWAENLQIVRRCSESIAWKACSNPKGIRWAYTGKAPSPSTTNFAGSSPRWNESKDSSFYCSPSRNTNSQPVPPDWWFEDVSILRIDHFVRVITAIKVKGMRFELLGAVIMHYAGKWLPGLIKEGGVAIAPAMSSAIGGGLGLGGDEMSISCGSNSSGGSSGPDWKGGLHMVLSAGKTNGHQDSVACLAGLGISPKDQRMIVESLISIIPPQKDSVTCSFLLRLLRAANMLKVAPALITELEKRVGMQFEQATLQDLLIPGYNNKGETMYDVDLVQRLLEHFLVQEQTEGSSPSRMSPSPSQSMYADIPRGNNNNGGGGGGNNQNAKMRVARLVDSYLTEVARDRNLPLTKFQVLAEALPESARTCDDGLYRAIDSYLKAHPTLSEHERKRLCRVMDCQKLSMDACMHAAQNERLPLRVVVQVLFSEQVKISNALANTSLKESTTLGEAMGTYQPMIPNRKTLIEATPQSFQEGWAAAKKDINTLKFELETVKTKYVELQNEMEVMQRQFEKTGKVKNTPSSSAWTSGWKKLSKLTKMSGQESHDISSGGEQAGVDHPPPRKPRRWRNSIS
The experiment in a line: affinity purification with mass spectrometry.

Results are given in words; binding and its absence hold for the method and conditions named. In cells and extracts the contact can be indirect. A yes stands for co-enrichment or nearness to the bait. Other partners may have been found. No binding means not detected with the bait. Tags and fused reporters may be left off the sequences shown.

For the substance CULLIN3, the binding entry was “no binding”.
